Measurements from the supplement of paper PMC10849652.
Some of the results follow.

Sequences of proteins named here, by UniProt entry; tags and fusion partners are left off. A change or cut given only in a name is not applied to a line headed by its entry.
UniProt Q9UHL0: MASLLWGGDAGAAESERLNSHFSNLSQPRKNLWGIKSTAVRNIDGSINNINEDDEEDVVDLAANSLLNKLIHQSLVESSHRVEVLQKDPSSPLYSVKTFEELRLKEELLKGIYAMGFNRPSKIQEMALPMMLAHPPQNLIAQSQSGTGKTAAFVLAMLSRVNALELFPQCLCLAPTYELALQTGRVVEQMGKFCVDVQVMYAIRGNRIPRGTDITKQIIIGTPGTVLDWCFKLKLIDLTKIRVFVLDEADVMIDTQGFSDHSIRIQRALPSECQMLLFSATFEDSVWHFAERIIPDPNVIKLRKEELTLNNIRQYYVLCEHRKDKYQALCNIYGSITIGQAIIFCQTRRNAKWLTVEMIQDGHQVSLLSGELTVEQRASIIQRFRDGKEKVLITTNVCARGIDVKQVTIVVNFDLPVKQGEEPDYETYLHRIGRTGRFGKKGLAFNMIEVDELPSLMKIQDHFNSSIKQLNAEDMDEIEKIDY
UniProt Q9Y2R4: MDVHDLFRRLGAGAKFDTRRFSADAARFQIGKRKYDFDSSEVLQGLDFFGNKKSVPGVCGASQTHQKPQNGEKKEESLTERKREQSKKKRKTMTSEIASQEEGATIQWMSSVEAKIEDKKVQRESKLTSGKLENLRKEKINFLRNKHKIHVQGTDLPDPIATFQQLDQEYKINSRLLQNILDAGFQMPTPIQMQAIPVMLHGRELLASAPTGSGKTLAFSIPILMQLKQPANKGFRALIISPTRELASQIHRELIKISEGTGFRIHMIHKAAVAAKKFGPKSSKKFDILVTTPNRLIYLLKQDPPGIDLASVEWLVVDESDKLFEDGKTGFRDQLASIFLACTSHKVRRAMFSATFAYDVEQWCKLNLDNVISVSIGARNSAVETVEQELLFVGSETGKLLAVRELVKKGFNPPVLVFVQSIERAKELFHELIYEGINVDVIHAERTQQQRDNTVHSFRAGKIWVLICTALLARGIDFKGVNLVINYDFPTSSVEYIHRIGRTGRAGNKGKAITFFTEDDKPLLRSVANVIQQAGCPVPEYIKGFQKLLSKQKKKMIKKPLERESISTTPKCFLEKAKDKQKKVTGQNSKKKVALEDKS
UniProt Q7L5Y6, whole entry, looked up: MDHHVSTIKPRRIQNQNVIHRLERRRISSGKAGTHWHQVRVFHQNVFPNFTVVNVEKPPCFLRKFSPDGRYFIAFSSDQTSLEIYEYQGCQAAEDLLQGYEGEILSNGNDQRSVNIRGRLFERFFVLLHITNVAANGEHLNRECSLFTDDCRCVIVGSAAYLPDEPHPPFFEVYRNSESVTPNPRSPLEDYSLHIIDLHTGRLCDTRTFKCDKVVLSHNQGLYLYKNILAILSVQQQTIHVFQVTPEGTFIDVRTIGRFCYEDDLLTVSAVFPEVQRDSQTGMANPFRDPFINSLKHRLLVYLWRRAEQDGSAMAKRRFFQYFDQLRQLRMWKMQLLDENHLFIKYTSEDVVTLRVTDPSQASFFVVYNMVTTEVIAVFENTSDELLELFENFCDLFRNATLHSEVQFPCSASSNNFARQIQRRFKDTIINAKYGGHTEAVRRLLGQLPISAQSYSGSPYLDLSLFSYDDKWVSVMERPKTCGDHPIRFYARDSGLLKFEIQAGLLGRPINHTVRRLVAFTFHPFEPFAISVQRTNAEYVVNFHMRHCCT
UniProt Q13206, whole entry, looked up: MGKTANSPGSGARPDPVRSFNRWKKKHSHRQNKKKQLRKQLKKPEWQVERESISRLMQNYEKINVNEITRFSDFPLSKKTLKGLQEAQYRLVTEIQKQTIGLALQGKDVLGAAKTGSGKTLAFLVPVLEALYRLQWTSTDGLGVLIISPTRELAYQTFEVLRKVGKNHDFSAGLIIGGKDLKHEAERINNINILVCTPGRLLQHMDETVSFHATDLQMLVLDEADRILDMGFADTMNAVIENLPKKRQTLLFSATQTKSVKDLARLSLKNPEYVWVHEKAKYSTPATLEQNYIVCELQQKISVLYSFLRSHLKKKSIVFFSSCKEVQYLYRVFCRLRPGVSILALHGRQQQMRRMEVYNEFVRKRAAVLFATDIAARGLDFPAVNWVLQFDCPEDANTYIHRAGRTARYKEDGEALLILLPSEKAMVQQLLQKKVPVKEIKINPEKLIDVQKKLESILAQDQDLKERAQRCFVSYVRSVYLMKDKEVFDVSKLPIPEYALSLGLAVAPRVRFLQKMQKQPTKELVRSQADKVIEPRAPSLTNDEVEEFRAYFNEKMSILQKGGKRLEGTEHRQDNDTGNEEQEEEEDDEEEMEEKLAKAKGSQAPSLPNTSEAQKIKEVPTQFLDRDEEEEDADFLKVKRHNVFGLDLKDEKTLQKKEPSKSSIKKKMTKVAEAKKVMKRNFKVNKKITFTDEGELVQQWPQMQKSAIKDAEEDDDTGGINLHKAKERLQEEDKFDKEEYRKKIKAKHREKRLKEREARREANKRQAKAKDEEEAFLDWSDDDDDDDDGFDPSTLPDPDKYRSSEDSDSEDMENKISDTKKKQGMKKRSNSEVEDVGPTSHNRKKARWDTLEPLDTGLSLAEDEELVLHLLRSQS
UniProt Q9H5Z1: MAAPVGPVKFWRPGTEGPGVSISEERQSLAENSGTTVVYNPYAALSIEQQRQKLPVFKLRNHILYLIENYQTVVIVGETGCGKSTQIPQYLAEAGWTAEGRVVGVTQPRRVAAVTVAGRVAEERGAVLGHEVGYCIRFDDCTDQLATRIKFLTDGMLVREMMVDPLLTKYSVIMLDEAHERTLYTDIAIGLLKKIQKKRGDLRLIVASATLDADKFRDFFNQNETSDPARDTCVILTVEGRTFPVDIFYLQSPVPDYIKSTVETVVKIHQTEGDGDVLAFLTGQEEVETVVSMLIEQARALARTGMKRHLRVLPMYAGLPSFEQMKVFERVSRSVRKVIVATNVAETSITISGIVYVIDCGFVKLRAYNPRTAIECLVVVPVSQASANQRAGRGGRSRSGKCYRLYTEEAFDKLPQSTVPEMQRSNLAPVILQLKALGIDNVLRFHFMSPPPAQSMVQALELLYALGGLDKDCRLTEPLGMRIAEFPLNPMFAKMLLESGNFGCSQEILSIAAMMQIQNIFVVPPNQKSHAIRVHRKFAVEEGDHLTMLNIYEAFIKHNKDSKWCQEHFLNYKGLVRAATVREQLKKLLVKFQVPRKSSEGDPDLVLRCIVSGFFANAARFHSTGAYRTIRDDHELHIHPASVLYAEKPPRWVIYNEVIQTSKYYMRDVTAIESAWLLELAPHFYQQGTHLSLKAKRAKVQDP
UniProt O75140: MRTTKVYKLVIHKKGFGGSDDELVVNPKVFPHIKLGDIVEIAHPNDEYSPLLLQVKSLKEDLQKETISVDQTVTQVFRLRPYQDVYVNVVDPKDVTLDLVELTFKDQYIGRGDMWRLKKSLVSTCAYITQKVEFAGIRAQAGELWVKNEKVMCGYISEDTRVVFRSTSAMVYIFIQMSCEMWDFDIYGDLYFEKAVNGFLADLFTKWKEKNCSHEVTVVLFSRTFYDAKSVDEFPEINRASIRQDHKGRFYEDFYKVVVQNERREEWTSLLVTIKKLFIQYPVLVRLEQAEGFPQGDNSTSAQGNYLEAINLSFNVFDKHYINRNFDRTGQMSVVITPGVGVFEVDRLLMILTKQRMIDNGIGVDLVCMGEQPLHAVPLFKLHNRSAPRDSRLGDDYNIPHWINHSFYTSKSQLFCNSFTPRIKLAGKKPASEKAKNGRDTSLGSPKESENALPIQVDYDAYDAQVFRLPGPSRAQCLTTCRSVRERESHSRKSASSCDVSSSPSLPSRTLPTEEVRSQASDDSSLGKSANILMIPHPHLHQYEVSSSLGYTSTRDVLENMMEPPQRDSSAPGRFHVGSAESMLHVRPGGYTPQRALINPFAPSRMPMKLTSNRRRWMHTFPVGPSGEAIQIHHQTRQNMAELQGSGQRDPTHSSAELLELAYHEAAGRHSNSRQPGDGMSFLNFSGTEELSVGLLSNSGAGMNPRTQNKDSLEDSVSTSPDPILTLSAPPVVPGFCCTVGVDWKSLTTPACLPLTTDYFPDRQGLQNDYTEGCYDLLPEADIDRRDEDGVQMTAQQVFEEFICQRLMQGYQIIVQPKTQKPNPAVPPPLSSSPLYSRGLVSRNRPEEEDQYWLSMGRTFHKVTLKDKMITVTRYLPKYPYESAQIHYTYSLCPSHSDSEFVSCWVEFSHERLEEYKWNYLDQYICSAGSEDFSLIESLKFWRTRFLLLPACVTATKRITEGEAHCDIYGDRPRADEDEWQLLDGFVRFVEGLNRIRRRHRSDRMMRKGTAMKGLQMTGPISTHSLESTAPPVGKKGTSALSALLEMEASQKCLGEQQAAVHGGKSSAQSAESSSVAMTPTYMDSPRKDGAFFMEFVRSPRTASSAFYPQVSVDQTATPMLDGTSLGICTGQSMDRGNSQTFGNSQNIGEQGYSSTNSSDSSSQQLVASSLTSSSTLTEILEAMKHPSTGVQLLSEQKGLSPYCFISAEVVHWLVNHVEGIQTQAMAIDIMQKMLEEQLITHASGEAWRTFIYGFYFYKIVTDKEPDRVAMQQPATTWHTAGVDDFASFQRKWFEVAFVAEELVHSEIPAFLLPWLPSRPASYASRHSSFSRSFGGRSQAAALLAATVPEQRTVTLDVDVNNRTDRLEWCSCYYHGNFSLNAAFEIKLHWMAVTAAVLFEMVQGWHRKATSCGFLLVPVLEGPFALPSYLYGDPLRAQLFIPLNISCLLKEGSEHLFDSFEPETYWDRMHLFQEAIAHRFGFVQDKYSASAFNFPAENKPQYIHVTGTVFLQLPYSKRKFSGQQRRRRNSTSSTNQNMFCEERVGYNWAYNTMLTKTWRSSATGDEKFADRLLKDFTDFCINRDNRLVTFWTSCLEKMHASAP
UniProt Q8IY37: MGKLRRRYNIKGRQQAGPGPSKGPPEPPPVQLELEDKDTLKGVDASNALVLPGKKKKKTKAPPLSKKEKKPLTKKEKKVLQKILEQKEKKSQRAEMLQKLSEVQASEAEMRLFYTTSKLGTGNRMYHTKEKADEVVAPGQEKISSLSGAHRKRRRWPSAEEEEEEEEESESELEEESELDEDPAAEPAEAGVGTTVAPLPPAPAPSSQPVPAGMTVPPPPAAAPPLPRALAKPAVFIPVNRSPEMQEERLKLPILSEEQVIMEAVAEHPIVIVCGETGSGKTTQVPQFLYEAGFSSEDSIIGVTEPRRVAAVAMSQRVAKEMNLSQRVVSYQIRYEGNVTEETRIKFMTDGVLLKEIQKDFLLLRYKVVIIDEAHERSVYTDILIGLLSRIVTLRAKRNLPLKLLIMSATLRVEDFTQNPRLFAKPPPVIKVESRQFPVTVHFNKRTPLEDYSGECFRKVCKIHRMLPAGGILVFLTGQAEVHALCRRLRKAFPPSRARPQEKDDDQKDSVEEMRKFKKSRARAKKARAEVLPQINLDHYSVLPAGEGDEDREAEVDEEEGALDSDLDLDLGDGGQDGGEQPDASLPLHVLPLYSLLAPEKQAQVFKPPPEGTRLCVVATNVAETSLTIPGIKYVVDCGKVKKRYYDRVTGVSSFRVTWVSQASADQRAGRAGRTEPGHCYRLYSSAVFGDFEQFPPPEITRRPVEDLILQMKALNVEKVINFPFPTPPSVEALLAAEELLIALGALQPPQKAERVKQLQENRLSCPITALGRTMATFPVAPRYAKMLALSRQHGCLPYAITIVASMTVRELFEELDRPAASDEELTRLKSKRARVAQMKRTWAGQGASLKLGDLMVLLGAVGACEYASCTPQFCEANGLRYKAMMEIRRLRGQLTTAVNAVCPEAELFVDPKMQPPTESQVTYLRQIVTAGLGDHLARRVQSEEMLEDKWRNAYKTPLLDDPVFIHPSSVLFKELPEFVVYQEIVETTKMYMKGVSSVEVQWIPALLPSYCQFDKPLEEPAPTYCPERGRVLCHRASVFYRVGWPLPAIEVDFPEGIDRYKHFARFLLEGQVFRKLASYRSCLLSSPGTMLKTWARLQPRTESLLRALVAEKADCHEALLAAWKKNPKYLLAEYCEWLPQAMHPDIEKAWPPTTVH
UniProt Q9BSY9: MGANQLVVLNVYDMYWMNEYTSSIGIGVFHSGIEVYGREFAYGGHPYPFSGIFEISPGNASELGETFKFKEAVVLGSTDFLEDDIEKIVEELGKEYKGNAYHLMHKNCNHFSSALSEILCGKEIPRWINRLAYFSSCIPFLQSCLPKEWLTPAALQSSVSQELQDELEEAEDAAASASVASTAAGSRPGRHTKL
UniProt Q08495: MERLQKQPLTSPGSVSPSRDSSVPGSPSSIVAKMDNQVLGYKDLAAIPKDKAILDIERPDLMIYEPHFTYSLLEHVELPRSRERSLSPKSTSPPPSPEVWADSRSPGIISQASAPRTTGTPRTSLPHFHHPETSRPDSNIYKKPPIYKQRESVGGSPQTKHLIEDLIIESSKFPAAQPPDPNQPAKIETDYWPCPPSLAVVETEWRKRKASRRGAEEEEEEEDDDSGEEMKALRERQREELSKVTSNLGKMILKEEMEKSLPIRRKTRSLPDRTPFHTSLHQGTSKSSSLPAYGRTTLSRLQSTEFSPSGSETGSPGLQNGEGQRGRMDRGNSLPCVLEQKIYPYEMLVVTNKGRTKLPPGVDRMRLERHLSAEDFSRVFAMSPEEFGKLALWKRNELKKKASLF

Legend:
Test in all cases: log2 fold change, soluble protein after heating vs DMSO (PISA); higher = thermal stabilisation; K562 cells, 10 uM, 30 min; active = over 0.2 and 3.5 SD of the protein, either way, in both replicates (recomputed)
[1] = compound: CC1=CC=C(C=C1)SC2=C3C=C(SC3=CN=C2)C(=O)N
In short: (§1)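 Soluble protein was defined as the supernatant after 21,000xg for 90 min. It came from K562 cells at 2×10^6 cells/mL given 10 μM compound for 30 min, heated in aliquots for 3 min across 48°C-58°C, pooled, and extracted in PBS with 0.5% NP-40 at 4°C, and was quantified by TMTpro 16plex LC-MS/MS with equalised channel sums. Thermal stability against control samples, from duplicates, is reported as log2 fold change.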

[2] = compound: CC1=NC(=CC=C1)C2=C(N=C(N2)C(C)(C)C)C3=CC4=NC=CN=C4C=C3
In short: as §1

[3] = compound: CCCS(=O)(=O)Nc1ccc(F)c(C(=O)c2c[nH]c3ncc(-c4ccc(Cl)cc4)cc23)c1F [vemurafenib]
In short: as §1

[4] = compound: CCCS(=O)(=O)Nc1ccc(F)c(C(=O)c2c[nH]c3ncc(Cl)cc23)c1F
In short: as §1

[5] = compound: CCCc1cc(C)[nH]c(=O)c1CNC(=O)c1cc(-c2ccnc(N3CCN(C)CC3)c2)cc2c1cnn2C(C)C
In short: as §1

[6] = compound: CCN(CCCOc1ccc2c(Nc3cc(CC(=O)Nc4cccc(F)c4)[nH]n3)ncnc2c1)CCOP(=O)(O)O [barasertib]
In short: as §1

[7] = compound: CC1=C(C=C(C=C1)NC(=O)C2=CC(=CC=C2)N(C)C)NC(=O)C3=CC=C(C=C3)O
In short: as §1

[8] = compound: CC1=C(C=C(C=C1)NC(=O)C2=CC(=CC=C2)C(C)(C)C#N)NC3=CC4=C(C=C3)N=CN(C4=O)C
In short: as §1

[9] = compound: CCCCN(Cc1ccc(C(=O)NO)cc1)C(=O)Nc1ccccc1 [Nexturastat A]
In short: as §1

[10] = compound: CCN(CC)Cc1ccc2cc(COC(=O)Nc3ccc(C(=O)NO)cc3)ccc2c1 [givinostat]
In short: as §1

Measured: log2 fold change

DDX25 (UniProt Q9UHL0)
inactive: [1] 0.065 | [2] 0.067 | [3] 0.252 | [4] 0.239 | [5] 0.116 | [6] 0.204

DDX52 (UniProt Q9Y2R4)
inactive: [7] -0.098 | [2] -0.239 | [6] -0.002

DEGS1 (UniProt O15121)
inactive: [8] -0.088 | [1] 0.003 | [9] -0.062 | [3] -0.185 | [4] 0.033 | [5] -0.053 | [10] -0.023 | [6] -0.018

DDX39B (UniProt H0Y400)
inactive: [9] -0.071 | [10] 0.066

DMKN (UniProt Q6E0U4)
inactive: [7] -0.072 | [1] -0.032 | [3] 0.274 | [4] -0.242 | [5] 0.332 | [10] -0.033 | [6] 0.074

DHX34 (UniProt Q14147)
inactive: [7] -0.042 | [2] 0 | [9] 0.288 | [10] 0.197

DHRSX (UniProt Q8N5I4)
inactive: [2] -0.04 | [3] 0.007 | [5] -0.028 | [10] -0.067 | [6] 0.026

DET1 isoform 2 (UniProt Q7L5Y6)
inactive: [7] -0.321 | [1] -0.254 | [2] -0.048 | [4] 0.024 | [5] -0.125

DDX10 (UniProt Q13206)
inactive: [10] 0.207

DDX18 (UniProt Q9NVP1)
inactive: [8] -0.102 | [2] -0.074 | [5] 0.059

DDAH1 (UniProt O94760)
inactive: [1] 0.008 | [3] -0.098 | [4] 0.072 | [5] -0.061 | [10] -0.064 | [6] 0.022

DNAH10 (UniProt Q8IVF4)
inactive: [8] -0.034 | [2] -0.114 | [9] 0.434 | [3] -0.067 | [5] -0.269 | [10] 0.307 | [6] 0.014

DHX35 (UniProt Q9H5Z1)
inactive: [9] 0.156

DERPC (UniProt P0CG12)
active: [10] 0.454
inactive: [7] -0.052 | [2] 0.005 | [3] 0.07 | [5] -0.029 | [6] 0.012

DMBT1 isoform 6 (UniProt Q9UGM3)
inactive: [8] 0.014 | [9] 0.04 | [5] -0.197 | [6] -0.185

DEPDC5 (UniProt O75140)
inactive: [2] -0.095

DLK1 (UniProt P80370)
inactive: [2] -0.033 | [9] -0.003 | [3] -0.026

DFFA isoform 2 (UniProt O00273)
inactive: [2] 0.006 | [9] 0.133 | [5] 0.129 | [10] 0.153 | [6] -0.055

DHTKD1 (UniProt Q96HY7)
inactive: [2] -0.208 | [9] -0.056 | [10] 0.096 | [6] 0.094

DHX32 (UniProt Q7L7V1)
inactive: [9] 0.271

DIEXF (UniProt Q68CQ4)
inactive: [3] 0.063

DDX55 (UniProt Q8NHQ9)
inactive: [8] 0.267 | [3] -0.144 | [6] 0.137

DMTF1 (UniProt Q9Y222)
inactive: [8] -0.05 | [1] 0.02 | [3] -0.125 | [4] -0.048

DDX46, A0A0C4DG89
inactive: [9] 0.058 | [5] 0.149

Reprinted at random: two entries already listed.
DLK1 (UniProt P80370)
inactive: [2] -0.033 | [9] -0.003 | [3] -0.026

DHRSX (UniProt Q8N5I4)
inactive: [2] -0.04 | [3] 0.007 | [5] -0.028 | [10] -0.067 | [6] 0.026

(cont.)

DGKE (UniProt P52429)
inactive: [8] -0.002 | [1] 0.042 | [2] 0.149 | [4] 0.251 | [5] 0.082 | [10] -0.06 | [6] 0.035

DHX37 (UniProt Q8IY37)
inactive: [9] 0.033 | [10] 0.176

DDR1 isoform 5 (UniProt Q08345)
inactive: [7] 0.078 | [2] -0.097 | [9] 0.075 | [3] -0.066 | [10] 0.347

DEF8 (UniProt Q6ZN54)
inactive: [1] 0.047 | [3] 0.181 | [4] 0.069 | [10] -0.013 | [6] 0.146

DEF6 (UniProt Q9H4E7)
inactive: [7] -0.177 | [2] -0.333 | [9] 0.41 | [5] 0.044

DDX11L8 (UniProt A8MPP1)
inactive: [1] -0.012 | [4] 0.05 | [6] 0.027

DECR1 (UniProt E5RJD2)
inactive: [1] -0.033 | [4] -0.163 | [5] 0.045 | [6] -0.037

DESI2 (UniProt Q9BSY9)
inactive: [8] 0.053 | [1] 0.134 | [2] 0.061 | [4] 0.079 | [10] 0.081 | [6] 0.008

DDB1 isoform 2 (UniProt Q16531)
inactive: [8] -0.144 | [9] -0.061 | [6] 0.116

DENND1A isoform 6 (UniProt Q8TEH3)
inactive: [1] 0.025 | [2] -0.009 | [3] -0.119 | [4] 0.114 | [6] 0.293

DMTN isoform 2 (UniProt Q08495)
inactive: [7] -0.011 | [2] -0.033 | [6] 0.062

DENND1C (UniProt Q8IV53)
inactive: [8] -0.211 | [3] -0.268 | [10] 0.151
